Source: PubChem BioAssay AID504784 (Drosophila RNAi Screening Center, 2011)
Test: 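Search for regulators of lipid droplet storage in oleate-fed fly cells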 (primary screen). Cells: Drosophila Kc167 embryonic cells. Reagents: long dsRNA against Drosophila genes, about 250 ng dsRNA per well. Duration: 4 days. Conditions: cells fed 400 µM oleic acid bound to BSA. Measurement: 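Cells imaged and segmented; ratio of lipid droplet area to nuclear area, log-transformed, then normalised as a B-score over the screen; higher means more stored lipid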. Reading the numbers: droplet/nuclear area B-score: higher = more stored lipid (overstorage).
The screen tested about 17,000 reagents; shown is an unselected part of those that have a named target and a result. 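Each column is one replicate's B-score; the combined score over replicates was not deposited, so single values may mislead.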 The numbers tell different reagents against one gene apart. Names joined by + are all predicted targets of the reagent. Not all columns of the deposit are shown. Reagent sequences are not shown.

no.	target	reagent no.	droplet/nuclear area B-score, replicate 1	droplet/nuclear area B-score, replicate 2
1	CG40298	1	0.409	3.47
2	CG6652	1	-1.58	-0.379
3	CG10431	1	-1.31	-1.78
4	RpS17	1	1.42	4.8
5	CG33270	1	-2.36	-0.0023
6	plh	1	0.0468	-1.5
7	ATPsynbeta	1	0.783	0.889
8	CG2540	1	-0.536	-0.275
9	CG14659	1	0.0511	-1.07
10	Ucp4A	1	-2.43	-2.58
11	Plc21C	1	-1.96	-2.75
12	CG15128	1	-0.638	3.5
13	CG3407	1	0.0651	-1.25
14	CG7889	1	1.63	-0.641
15	CG31627	1	5.11	-0.558
16	pyx	1	0.0289	0.146
17	pyx	2	0.749	0.215
18	vap	1	0.265	-1.09
19	CG8635	1	-0.842	-0.604
20	CG17985	1	-0.123	1.93
21	rg	1	-0.389	-3.23
22	rg	2	-0.715	0.507
23	trx	1	-0.227	-5.77
24	CG12608	1	-1.64	1.1
25	mRpL19	1	0.198	0.746
26	mRpL19	2	-0.939	-1.42
27	CG11263	1	0.0189	0.546
28	msl-1	1	-1.55	0.561
29	Hn	1	0.0119	-0.963
30	Afti	1	-0.0668	8.57
31	HP6	1	0.218	0.014
32	Golgin245	1	0.0822	0.0195
33	Golgin245	2	-0.0761	1.62
34	Setx	1	1.21	0.156
35	Ccdc58 + CG34116	1	0.0309	0.00137
36	CG14937	1	2.42	1.96
37	CG32808	1	-1.52	0.0714
38	Saf-B	1	5.93	-0.261
39	CG31245	1	0.0907	0.43
40	Not10	1	1.24	-0.0895
41	Duox	1	-0.181	-0.68
42	CG8195	1	0.31	-0.848
43	Rab9Db + Rab9Fa	1	-0.707	1.41
44	CG15549	1	0.702	0.408
45	CG15046	1	-0.434	-7.1
46	CG13005	1	0.839	0.863
47	Gr66a	1	-0.263	-0.397
48	CG15580	1	-1.58	-0.158
49	CG8993	1	-0.772	-0.029
50	RpL18A	1	3.03	4.68
51	CG17782	1	-0.529	-0.693
52	CG17782	2	1.17	0.434
53	CG7536	1	-1.04	-0.0994
54	nopo	1	3.21	-2.1
55	CG15073	1	-0.154	0.634
56	CG2811	1	-0.326	3.08
57	Pld	1	0.134	0.671
58	CanA1	1	-0.839	1.96
59	Gr58a	1	-1.57	-0.864
60	CG12084	1	-1.04	2.02
61	CG11018	1	-1.57	-6.45
62	Clic	1	-0.211	1.06
63	tctn + B9d2	1	0.0954	-0.0288
64	ninaE	1	-0.0563	-2.02
65	CG15172	1	0.0622	0.181
66	not	1	0.221	-0.574
67	CG8861	1	1.67	-0.0549
68	CG8861	2	-0.428	0.819
69	CG16898	1	1.36	-0.612
70	CG15012	1	0.433	0.0687
71	GrlHz	1	-0.18	-0.159
72	CG4998	1	-1.22	0.05
73	CG4998	2	0.454	0.182
74	CG15143	1	0.139	-0.386
75	CR14033	1	1.07	-0.119
76	png	1	1.38	0.537
77	t	1	-0.22	0.0803
78	Vinc	1	-0.138	-0.00339
79	CG33255 (retired record) + hpRNA:CR32205 + hpRNA:CR32207	1	-0.0421	-1.01
80	CG14132	1	-0.0106	-0.583
81	Ir94c	1	0.423	-0.0316
82	Rpe	1	0.171	0.396
83	CG1161	1	0.148	0.559
84	Cep135	1	-0.13	-0.604
85	Cep135	2	2.04	-0.0735
86	CG8665	1	-3.31	-1.95
87	CG9330	1	0.81	-0.789
88	CG8086	1	-0.0318	1.63
89	CG8086	2	-0.0548	-0.684
90	CG4853	1	-1.14	0.564
91	CG5397	1	0.000898	-1.09
92	CG3795	1	-0.346	
93	CG11044	1	0.258	0.869
94	Acsl	1	-3.29	-0.0886
95	CG33124	1	1.08	-0.000375
96	Picot	1	-0.837	
97	zpg	1	0.458	0.369
98	CG17234	1	1.83	0.485
99	Slmap	1	-0.43	0.667
100	Krn	1	3.71	4.75
101	Cap-H2	1	0.00357	-0.225
102	Gr63a	1	-0.392	-0.18
103	Ugt49C1	1	0.0172	0.641
104	mip40	1	-0.305	-1.21
105	CG13272	1	-0.325	0.0831
106	CG13272	2	-0.299	0.000844
